Experimental data published in PMC7951927.

Sequences of proteins named here, by UniProt entry; tags and fusion partners are left off.
UniProt Q8IWT3: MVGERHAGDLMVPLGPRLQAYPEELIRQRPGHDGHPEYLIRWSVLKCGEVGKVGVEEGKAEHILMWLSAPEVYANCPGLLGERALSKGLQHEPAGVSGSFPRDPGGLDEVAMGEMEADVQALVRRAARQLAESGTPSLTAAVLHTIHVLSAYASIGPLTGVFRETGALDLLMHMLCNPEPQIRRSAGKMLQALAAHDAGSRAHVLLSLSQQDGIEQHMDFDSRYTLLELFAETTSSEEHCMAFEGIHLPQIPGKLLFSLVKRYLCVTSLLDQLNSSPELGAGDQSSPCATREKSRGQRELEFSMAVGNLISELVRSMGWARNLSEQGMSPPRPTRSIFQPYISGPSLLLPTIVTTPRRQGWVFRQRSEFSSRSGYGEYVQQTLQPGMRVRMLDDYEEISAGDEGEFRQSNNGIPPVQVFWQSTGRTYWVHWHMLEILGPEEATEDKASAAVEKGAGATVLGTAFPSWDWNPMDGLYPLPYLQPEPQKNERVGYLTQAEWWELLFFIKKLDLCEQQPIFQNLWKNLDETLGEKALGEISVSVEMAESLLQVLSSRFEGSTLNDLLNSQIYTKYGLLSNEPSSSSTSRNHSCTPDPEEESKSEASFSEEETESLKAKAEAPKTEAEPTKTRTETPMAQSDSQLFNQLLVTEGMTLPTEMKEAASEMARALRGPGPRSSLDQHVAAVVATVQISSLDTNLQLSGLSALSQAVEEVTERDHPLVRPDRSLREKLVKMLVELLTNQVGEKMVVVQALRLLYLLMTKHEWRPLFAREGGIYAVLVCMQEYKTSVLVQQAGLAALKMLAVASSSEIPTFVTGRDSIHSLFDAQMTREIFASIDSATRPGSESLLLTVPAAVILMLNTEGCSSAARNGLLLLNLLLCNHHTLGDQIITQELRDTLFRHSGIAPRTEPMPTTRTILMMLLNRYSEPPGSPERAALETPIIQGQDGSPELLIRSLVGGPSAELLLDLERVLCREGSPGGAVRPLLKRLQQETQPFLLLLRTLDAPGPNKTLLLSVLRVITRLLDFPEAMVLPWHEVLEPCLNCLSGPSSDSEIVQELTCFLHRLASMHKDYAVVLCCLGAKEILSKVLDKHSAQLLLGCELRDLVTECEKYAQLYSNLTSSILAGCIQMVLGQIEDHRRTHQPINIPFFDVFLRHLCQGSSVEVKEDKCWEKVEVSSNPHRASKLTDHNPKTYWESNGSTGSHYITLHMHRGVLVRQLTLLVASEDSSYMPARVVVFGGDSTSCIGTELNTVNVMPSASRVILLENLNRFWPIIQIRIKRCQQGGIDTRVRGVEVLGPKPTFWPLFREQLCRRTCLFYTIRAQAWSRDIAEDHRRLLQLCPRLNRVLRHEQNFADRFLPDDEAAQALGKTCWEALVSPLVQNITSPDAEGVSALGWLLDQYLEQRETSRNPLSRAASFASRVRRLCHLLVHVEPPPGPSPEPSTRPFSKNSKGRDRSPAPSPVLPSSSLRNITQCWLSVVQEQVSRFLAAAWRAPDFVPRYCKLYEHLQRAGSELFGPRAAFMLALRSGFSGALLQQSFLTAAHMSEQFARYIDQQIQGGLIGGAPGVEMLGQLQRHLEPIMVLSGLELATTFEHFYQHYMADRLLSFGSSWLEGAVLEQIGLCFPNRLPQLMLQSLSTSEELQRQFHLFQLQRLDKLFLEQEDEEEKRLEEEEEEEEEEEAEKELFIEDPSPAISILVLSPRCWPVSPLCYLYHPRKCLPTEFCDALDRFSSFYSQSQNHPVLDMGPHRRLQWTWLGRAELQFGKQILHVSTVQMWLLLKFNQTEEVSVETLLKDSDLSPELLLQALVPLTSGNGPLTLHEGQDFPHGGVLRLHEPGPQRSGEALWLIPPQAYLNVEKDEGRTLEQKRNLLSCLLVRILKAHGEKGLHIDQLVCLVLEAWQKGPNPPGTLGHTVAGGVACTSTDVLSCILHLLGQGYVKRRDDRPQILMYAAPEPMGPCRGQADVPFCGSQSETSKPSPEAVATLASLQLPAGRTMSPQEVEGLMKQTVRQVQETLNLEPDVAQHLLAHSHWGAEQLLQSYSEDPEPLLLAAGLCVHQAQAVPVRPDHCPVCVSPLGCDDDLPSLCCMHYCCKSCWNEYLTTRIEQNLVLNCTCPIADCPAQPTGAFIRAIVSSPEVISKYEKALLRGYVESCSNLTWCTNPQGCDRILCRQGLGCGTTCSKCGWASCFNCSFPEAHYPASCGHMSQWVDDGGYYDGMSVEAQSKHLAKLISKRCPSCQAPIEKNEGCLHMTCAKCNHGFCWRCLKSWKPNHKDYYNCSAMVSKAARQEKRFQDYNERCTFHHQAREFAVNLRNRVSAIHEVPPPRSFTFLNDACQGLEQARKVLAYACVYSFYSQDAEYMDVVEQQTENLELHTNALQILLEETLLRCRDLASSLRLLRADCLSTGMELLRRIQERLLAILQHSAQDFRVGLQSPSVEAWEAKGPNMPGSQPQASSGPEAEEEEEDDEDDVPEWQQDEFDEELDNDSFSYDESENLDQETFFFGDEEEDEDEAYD
UniProt Q9H1A4: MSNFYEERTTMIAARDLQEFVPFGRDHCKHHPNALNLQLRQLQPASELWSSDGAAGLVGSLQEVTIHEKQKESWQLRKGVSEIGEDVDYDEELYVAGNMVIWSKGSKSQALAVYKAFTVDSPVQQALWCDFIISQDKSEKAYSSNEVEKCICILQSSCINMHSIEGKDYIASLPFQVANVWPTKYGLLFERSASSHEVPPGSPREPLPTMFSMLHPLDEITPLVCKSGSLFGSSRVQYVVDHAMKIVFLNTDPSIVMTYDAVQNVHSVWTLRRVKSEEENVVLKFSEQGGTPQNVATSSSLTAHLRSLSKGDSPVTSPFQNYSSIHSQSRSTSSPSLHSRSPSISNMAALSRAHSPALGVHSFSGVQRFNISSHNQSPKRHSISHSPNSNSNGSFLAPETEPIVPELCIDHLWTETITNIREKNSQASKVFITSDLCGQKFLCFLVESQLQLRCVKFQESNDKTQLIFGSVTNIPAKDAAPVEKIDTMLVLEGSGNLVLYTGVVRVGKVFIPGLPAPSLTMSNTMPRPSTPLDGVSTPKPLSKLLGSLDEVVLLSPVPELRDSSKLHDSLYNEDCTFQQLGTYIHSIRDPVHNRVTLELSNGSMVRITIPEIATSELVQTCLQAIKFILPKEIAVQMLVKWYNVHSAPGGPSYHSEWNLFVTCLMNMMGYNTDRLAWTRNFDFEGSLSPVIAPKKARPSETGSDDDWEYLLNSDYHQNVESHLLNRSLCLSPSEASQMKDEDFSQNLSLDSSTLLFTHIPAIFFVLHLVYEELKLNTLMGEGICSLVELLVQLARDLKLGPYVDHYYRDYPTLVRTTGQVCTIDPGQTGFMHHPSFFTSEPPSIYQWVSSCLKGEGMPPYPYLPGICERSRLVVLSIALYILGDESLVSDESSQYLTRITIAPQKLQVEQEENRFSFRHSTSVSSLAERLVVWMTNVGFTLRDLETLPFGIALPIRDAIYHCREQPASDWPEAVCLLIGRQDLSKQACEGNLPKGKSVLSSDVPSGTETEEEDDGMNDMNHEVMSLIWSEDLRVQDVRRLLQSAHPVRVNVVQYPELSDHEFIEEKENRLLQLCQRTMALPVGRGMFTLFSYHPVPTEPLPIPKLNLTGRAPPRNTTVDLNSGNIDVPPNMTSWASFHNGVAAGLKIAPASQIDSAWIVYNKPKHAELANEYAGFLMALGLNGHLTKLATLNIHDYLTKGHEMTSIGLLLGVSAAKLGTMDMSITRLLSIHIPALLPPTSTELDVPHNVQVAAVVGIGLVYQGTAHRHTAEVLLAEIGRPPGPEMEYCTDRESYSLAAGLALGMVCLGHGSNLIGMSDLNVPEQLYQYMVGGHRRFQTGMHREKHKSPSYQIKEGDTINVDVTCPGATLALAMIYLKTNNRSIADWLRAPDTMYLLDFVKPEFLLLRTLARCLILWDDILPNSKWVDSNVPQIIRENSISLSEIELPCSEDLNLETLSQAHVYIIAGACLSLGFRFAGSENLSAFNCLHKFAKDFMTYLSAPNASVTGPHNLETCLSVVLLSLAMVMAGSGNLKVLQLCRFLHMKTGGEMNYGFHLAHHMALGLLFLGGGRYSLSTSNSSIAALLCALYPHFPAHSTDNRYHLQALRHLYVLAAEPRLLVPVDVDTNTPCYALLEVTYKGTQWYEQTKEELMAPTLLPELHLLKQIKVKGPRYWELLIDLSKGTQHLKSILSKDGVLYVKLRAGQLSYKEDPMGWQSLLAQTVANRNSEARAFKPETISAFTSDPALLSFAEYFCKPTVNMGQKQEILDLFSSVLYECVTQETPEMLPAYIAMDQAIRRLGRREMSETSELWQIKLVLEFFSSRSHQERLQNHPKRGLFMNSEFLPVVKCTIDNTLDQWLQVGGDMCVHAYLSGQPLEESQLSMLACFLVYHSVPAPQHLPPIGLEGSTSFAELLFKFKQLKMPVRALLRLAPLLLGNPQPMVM
UniProt Q14999: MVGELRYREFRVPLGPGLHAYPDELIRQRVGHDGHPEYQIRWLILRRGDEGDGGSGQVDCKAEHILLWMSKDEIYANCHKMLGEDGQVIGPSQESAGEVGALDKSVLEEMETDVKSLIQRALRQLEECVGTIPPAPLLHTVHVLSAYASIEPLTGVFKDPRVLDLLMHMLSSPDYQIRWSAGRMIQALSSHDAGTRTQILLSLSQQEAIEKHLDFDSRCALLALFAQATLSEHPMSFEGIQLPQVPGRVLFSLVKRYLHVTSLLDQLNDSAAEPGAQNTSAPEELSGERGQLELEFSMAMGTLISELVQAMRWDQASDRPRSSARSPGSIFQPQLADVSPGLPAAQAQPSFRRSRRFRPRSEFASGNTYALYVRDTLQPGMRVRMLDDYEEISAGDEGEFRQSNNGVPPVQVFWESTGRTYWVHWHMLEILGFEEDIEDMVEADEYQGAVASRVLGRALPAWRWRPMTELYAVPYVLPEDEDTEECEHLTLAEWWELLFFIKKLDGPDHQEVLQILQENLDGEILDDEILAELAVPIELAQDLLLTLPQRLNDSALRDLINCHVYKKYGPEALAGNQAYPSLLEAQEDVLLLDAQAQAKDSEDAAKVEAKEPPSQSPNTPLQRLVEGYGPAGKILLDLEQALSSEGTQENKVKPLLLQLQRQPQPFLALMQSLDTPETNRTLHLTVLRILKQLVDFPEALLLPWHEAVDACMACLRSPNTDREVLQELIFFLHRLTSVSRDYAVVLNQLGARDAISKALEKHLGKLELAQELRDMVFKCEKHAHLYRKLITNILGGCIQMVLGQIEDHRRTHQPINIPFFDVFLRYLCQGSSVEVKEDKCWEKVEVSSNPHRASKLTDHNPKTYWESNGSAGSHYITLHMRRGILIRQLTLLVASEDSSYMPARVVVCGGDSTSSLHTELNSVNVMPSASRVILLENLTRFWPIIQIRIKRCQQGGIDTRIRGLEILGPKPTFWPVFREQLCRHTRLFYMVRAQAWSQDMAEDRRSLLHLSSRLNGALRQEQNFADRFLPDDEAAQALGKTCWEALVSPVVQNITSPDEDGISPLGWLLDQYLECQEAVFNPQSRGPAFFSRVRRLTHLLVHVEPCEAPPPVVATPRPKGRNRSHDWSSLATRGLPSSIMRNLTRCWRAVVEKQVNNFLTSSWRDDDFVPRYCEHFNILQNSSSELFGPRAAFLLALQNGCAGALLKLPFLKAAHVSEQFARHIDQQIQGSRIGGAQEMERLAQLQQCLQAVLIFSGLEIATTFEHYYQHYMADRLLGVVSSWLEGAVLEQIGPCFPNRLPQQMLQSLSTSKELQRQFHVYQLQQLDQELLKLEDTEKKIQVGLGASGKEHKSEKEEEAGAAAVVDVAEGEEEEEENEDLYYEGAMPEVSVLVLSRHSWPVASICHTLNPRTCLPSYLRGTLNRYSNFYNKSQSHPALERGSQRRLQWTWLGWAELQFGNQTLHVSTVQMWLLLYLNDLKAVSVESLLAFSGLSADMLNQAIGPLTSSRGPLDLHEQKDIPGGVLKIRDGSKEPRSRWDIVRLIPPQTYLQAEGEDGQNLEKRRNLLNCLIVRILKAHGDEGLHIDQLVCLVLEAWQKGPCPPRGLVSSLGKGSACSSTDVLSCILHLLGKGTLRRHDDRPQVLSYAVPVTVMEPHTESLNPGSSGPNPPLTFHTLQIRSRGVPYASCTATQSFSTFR
UniProt P38919: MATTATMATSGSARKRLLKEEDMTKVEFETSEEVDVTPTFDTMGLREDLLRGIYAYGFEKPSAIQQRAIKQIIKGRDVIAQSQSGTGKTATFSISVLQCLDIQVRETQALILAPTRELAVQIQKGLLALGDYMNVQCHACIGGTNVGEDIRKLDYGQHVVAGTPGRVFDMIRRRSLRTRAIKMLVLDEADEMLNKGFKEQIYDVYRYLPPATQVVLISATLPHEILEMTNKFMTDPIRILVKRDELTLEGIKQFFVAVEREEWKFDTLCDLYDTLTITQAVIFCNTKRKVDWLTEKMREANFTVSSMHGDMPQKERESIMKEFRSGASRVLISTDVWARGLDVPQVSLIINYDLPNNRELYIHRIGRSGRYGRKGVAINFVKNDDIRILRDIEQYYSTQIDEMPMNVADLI

Target: Cullin-9 (human (endogenous in hPSCs, hNSCs, hNPCs)) (UniProt Q8IWT3)
Assay: affinity purification with mass spectrometry; endogenous CUL9 immunoprecipitated (anti-CUL9, Dynabeads, 1% Triton washes) from 2 mg whole-cell hPSC lysate, cells treated with bortezomib; IgG control; LC-MS/MS

| binding | Molecule |
| --- | --- |
| binds | Anaphase-promoting complex subunit 1 (from UniProt Q9H1A4 1-1944) |
| binds | Anaphase-promoting complex subunit 5 (from UniProt Q9UJX4 1-755) |
| binds | Cytoplasmic dynein 1 heavy chain 1 (from UniProt Q14204 1-4646) |
| binds | Nuclear pore complex protein Nup153 (from UniProt P49790 1-1475) |
| binds | U5 small nuclear ribonucleoprotein 200 kDa helicase (from UniProt O75643 1-2136) |
| binds | Hydroxymethylglutaryl-CoA synthase, cytoplasmic (protein, UniProt Q01581 1-520) MPGSLPLNAEACWPKDVGIVALEIYFPSQYVDQAELEKYDGVDAGKYTIGLGQAKMGFCTDREDINSLCMTVVQNLMERNNLSYDCIGRLEVGTETIIDKSKSVKTNLMQLFEESGNTDIEGIDTTNACYGGTAAVFNAVNWIESSSWDGRYALVVAGDIAVYATGNARPTGGVGAVALLIGPNAPLIFERGLRGTHMQHAYDFYKPDMLSEYPIVDGKLSIQCYLSALDRCYSVYCKKIHAQWQKEGNDKDFTLNDFGFMIFHSPYCKLVQKSLARMLLNDFLNDQNRDKNSIYSGLEAFGDVKLEDTYFDRDVEKAFMKASSELFSQKTKASLLVSNQNGNMYTSSVYGSLASVLAQYSPQQLAGKRIGVFSYGSGLAATLYSLKVTQDATPGSALDKITASLCDLKSRLDSRTGVAPDVFAENMKLREDTHHLVNYIPQGSIDSLFEGTWYLVRVDEKHRRTYARRPTPNDDTLDEGVGLVHSNIATEHIPSPAKKVPRLPATAAEPEAAVISNGEH |

Continued, molecule first:

| Molecule | binding |
| --- | --- |
| ATP-dependent RNA helicase DDX3X (from UniProt O00571 1-662) | binds |
| Anaphase-promoting complex subunit 4 (from UniProt Q9UJX5 1-808) | binds |
| Coatomer subunit alpha (from UniProt P53621 1-1224) | binds |
| Cullin-7 (from UniProt Q14999 1-1698) | binds |
| Eukaryotic initiation factor 4A-III (from UniProt P38919 1-411) | binds |
| Apoptotic chromatin condensation inducer in the nucleus (protein, UniProt Q9UKV3 1-1341) MWRRKHPRTSGGTRGVLSGNRGVEYGSGRGHLGTFEGRWRKLPKMPEAVGTDPSTSRKMAELEEVTLDGKPLQALRVTDLKAALEQRGLAKSGQKSALVKRLKGALMLENLQKHSTPHAAFQPNSQIGEEMSQNSFIKQYLEKQQELLRQRLEREAREAAELEEASAESEDEMIHPEGVASLLPPDFQSSLERPELELSRHSPRKSSSISEEKGDSDDEKPRKGERRSSRVRQARAAKLSEGSQPAEEEEDQETPSRNLRVRADRNLKTEEEEEEEEEEEEDDEEEEGDDEGQKSREAPILKEFKEEGEEIPRVKPEEMMDERPKTRSQEQEVLERGGRFTRSQEEARKSHLARQQQEKEMKTTSPLEEEEREIKSSQGLKEKSKSPSPPRLTEDRKKASLVALPEQTASEEETPPPLLTKEASSPPPHPQLHSEEEIEPMEGPAPAVLIQLSPPNTDADTRELLVSQHTVQLVGGLSPLSSPSDTKAESPAEKVPEESVLPLVQKSTLADYSAQKDLEPESDRSAQPLPLKIEELALAKGITEECLKQPSLEQKEGRRASHTLLPSHRLKQSADSSSSRSSSSSSSSSRSRSRSPDSSGSRSHSPLRSKQRDVAQARTHANPRGRPKMGSRSTSESRSRSRSRSRSASSNSRKSLSPGVSRDSSTSYTETKDPSSGQEVATPPVPQLQVCEPKERTSTSSSSVQARRLSQPESAEKHVTQRLQPERGSPKKCEAEEAEPPAATQPQTSETQTSHLPESERIHHTVEEKEEVTMDTSENRPENDVPEPPMPIADQVSNDDRPEGSVEDEEKKESSLPKSFKRKISVVSATKGVPAGNSDTEGGQPGRKRRWGASTATTQKKPSISITTESLKSLIPDIKPLAGQEAVVDLHADDSRISEDETERNGDDGTHDKGLKICRTVTQVVPAEGQENGQREEEEEEKEPEAEPPVPPQVSVEVALPPPAEHEVKKVTLGDTLTRRSISQQKSGVSITIDDPVRTAQVPSPPRGKISNIVHISNLVRPFTLGQLKELLGRTGTLVEEAFWIDKIKSHCFVTYSTVEEAVATRTALHGVKWPQSNPKFLCADYAEQDELDYHRGLLVDRPSETKTEEQGIPRPLHPPPPPPVQPPQHPRAEQREQERAVREQWAEREREMERRERTRSEREWDRDKVREGPRSRSRSRDRRRKERAKSKEKKSEKKEKAQEEPPAKLLDDLFRKTKAAPCIYWLPLTDSQIVQKEAERAERAKEREKRRKEQEEEEQKEREKEAERERNRQLEREKRREHSRERDRERERERERDRGDRDRDRERDRERGRERDRRDTKRHSRSRSRSTPVRDRGGRR | binds |

No constants are given. Whether binding was seen depends on the method and setting. Binding seen in cells or lysates may run through a third protein. These calls come from enrichment with a bait or labelling near it, and not all partners need be listed.
